{"source": "patent US20060205642A1", "about": "“Oral methods of treatment using proANF peptides” (priority 2005, published 2006)", "key": {"[1]": {"test": "Infusion into human subjects with Class III NYHA congestive heart failure", "assay_type": "in vivo, humans", "settings": "for time after stopping infusion for which diuresis / urine flow is still significantly elevated (P<0.01): humans with congestive heart failure", "description": "Human proANF's 1-30, 31-67, 79-98, and 99-126 (i.e., ANF) were infused into human subjects with Class III New York Heart Association congestive heart failure (CHF). An identical protocol to that used in example V where these peptides were infused into healthy human subjects was utilized. (See Attachment C and F for a detailed description of this protocol). The human subjects with congestive heart failure received an identical dose (0.1 μg/kg body wt/minute for 60 minutes) that the healthy human subjects received. […] This striking urine output secondary to proANF 31-67 was significant at P<0.0001 compared to the pre-infusion output of the congestive heart failure subjects (n=6)."}, "[2]": {"test": "Infusion into healthy human subjects", "assay_type": "in vivo, humans", "settings": "for increase in urine flow: infusion", "description": "Infusion of these peptides into healthy human subjects was performed as follows: Human pro-ANF 1-30, pro-ANF 31-67, and pro-ANF 79-98, and hANF (i.e., pro-ANF 99-126, were synthesized by Peninsula Laboratories (Belmont, Calif.). High pressure liquid chromatography (HPLC) analysis was performed on a sample of each of the four peptides to ensure purity. The peptides were dissolved in a sterile 0.9% saline solution to a concentration of 100 μg/ml and dispensed in 2 and 5 ml aliquots into sealed sterile vials. At the time of dispensing, randomly selected vials were tested for pyrogens and sterility. Prior to labeling the vials, the actual peptide content of the dispensed solution were determined by direct radioimmunoassay to account for any possible absorption of the respective peptides to the walls of the vials. All vials were then stored at −80° C. until thawed for individual study.\nNormal healthy subjects were chosen on the basis of age (between 20 and 50 years), physical examination and biochemical screenings. The subjects consumed their normal diets prior to testing. The subjects fasted overnight and were tested in the morning in the seated position. Intravenous catheters were placed bilaterally for the administration of pro-hANF 1-30, pro-hANF 31-67, pro-hANF 79-98 and hANF (pro-hANF 99-126) and for blood sampling. After completion of a 45-minute equilibration period, there were three […] phases of the study: baseline, experimental infusion (60 minutes) and recovery (3 hours). The baseline phase consisted of two 30 minute urine collection periods, the experimental phase consisted of three 20 minute urine and plasma collection periods, and the recovery phase consisted of two 30 minute urine and plasma collection periods each hour for three hours post-infusion. Urine output was replaced on a milliliter per milliliter basis throughout the study by administering oral water or orange juice. Urine samples were obtained by voiding at the designated collection periods.\nThe 36 subjects were divided into 6 groups. One group (i.e., the control group) received a placebo infusion of 0.9% sodium chloride during the experimental infusion phase. […] The four remaining groups of six subjects each received human pro-hANF 1-30, pro-hANF 31-67, pro-hANF 79-98 and HANF. The four groups received the peptides by continuous infusion at the rate of 0.1 μg/kg per minute. The volume administered per hour during the experimental infusion phase was 10 ml for all four peptides and the placebo. All infusions were given by a constant-rate infusion pump, with the final concentrations of prohANFs adjusted for the subjects' body weight. The subjects heart rate and cuff blood pressure were taken at 5 minute intervals throughout the study. The excreted urine was analyzed for sodium concentration."}, "[3]": {"tested_on": "particulate guanylate cyclase", "test": "Cyclic GMP / particulate guanylate cyclase activation in cultured smooth muscle cells and porcine aorta", "assay_type": "cell-based"}, "[4]": {"tested_on": "renal medullary Na+-K+-ATPase", "test": "Inhibition of renal medullary Na+-K+-ATPase activity (FIG. 9)", "assay_type": "biochemical", "settings": "10^-11 M, n=6, ANOVA", "source_text": "FIG. 9. Inhibition of renal medullary Na+-K+-ATPase activity by proANF 79-98 (kaliuretic peptide), proANF 1-30 (long acting natriuretic peptide), proANF 31-67 (vessel dilator), and angiotensin II at their […] concentrations."}, "[5]": {"tested_on": "prostaglandin E2 (PGE2) synthesis", "test": "Prostaglandin E2 synthesis (FIG. 8)", "assay_type": "biochemical", "settings": "n=6, ANOVA and Duncan's MRT"}, "[6]": {"tested_on": "particulate guanylate cyclase", "test": "Particulate guanylate cyclase activity in the kidney", "assay_type": "biochemical", "settings": "1 μM; whole kidney homogenates, renal cortical and medullary membranes, isolated distal nephrons", "description": "Testing is also carried out to determine biologic effects of these peptides by measuring their effects on particulate guanylate activity in the kidney."}, "[7]": {"test": "Rat clearance model (diuresis and salt excretion)", "assay_type": "in vivo, Munich-Wistar rats", "settings": "for FENa, fractional excretion of sodium / UNa, urinary sodium / UNaV, urinary sodium excretion rate / V, urine flow rate: means ± SE", "description": "The same three peptides and ANF from Example I are tested using the rat clearance model. Six control rats and six experimental Munich-Wistar rats, each weighing 150-200 grams, are used for each peptide, with catheters being placed in both jugular veins and in the femoral artery. The ureters are cannulated for simultaneous urine collections with femoral artery blood collections.\nAfter inserting the catheters, a stabilization of one hour is allowed. A 10 μg/kg bolus of each of the respective human sequences of the peptides is given via the jugular vein to six experimental rats followed by a sustaining infusion of 0.1 μg/kg/min for 60 minutes. Blood and urine samples are collected at 20 minute intervals during this 60 minute infusion. In both the control and experimental animals, hematocrits and plasma sodium values remained at the same levels pre- and post-infusion while blood pressure decreased with each of these peptides (see Attachment B)."}, "porcine aortas": {"tested_on": "porcine aortas", "test": "Vasodilation of porcine aortic strips preconstricted with 0.3 micromolar phenylephrine", "description": "30 Kg pigs are sacrificed, and aortic strips are harvested. The strips are attached to F-60 transducer (Narco-BioSystems, Houston, Tex.) and attached to a physiography (Narco-BioSystems) while being submerged in a muscle tissue bath comprising a Krebs Ringer solution at 37° C., with 95% O2-5% CO2, bubbled through the bath. Percentage vasodilation is measured versus time after preconstriction with 0.3 micromolar phenylephrine. […] (Vesely et al., Biochem. Biophys. Res. Commun. 148:1540-1548, 1987)."}, "[8]": {"settings": "A, control period (before peptide)"}, "[9]": {"settings": "B, first 60-minute experiment period, 10 μg/kg bolus then 0.1 μg/kg/min"}, "[10]": {"settings": "C, second 60-minute experimental period"}}, "note": "Part of at least one peptide drawing is inferred or uncertain, most often the ends. Some entries share one result that the patent states for a list of compounds. Some ranges recur; such a range may be that of the whole group of compounds."}
{"compound": "H-SSDRSALLKSKLRALLTAPR-OH [proANF 79-98]", "values": [{"measurement": "time after stopping infusion for which diuresis / urine flow is still significantly elevated (P<0.01)", "setting": "[1]", "value": "at least 3 hours"}, {"measurement": "increase in urine flow", "setting": "[2]; healthy humans", "value": "4-12 fold"}]}
{"compound": "H-NPMYNAVSNADLMDFKNLLDHLEEKMPLED-OH [proANF 1-30]", "values": [{"measurement": "time after stopping infusion for which diuresis / urine flow is still significantly elevated (P<0.01)", "setting": "[1]", "value": "at least 3 hours"}, {"measurement": "increase in urine flow", "setting": "[2]; healthy humans", "value": "4-12 fold"}]}
{"compound": "CC[C@H](C)[C@@H]1NC(=O)[C@H](CCCNC(=N)N)NC(=O)[C@H](CC(=O)O)NC(=O)[C@H](CCSC)NC(=O)[C@H](CCCNC(=N)N)NC(=O)CNC(=O)CNC(=O)[C@H](Cc2ccccc2)NC(=O)[C@@H](NC(=O)[C@H](CO)NC(=O)[C@H](CO)NC(=O)[C@H](CCCNC(=N)N)NC(=O)[C@H](CCCNC(=N)N)NC(=O)[C@H](CC(C)C)NC(=O)[C@@H](N)CO)CSSC[C@@H](C(=O)N[C@@H](CC(N)=O)C(=O)N[C@@H](CO)C(=O)N[C@@H](Cc2ccccc2)C(=O)N[C@@H](CCCNC(=N)N)C(=O)N[C@@H](Cc2ccc(O)cc2)C(=O)O)NC(=O)CNC(=O)[C@H](CC(C)C)NC(=O)CNC(=O)[C@H](CO)NC(=O)[C@H](CCC(N)=O)NC(=O)[C@H](C)NC(=O)CNC1=O", "note": "[ANF, reference compound]", "values": [{"measurement": "fractional excretion of sodium (in words)", "setting": "[1]; CHF, 100 ng/kg body weight per minute for 60 minutes", "value": "did not significantly increase"}, {"measurement": "fractional excretion of potassium", "setting": "[1]; CHF, first 20 minutes of infusion, P<0.05", "value": "did increase"}, {"measurement": "urine flow (in words)", "setting": "[1]; CHF, same concentration", "value": "did not significantly enhance urine flow"}, {"measurement": "effects in persons with CHF compared to healthy individuals", "setting": "[1]; diuretic and natriuretic effects", "value": "blunted"}, {"measurement": "sodium excretion in the other half of the CHF subjects", "setting": "[1]; other half of the CHF subjects", "value": "no effect"}, {"measurement": "cyclic GMP levels in cultured smooth muscle cells", "setting": "[3]; cultured smooth muscle cells", "value": "increase cyclic GMP levels"}, {"measurement": "concentration of maximal activation of guanylate cyclase activity", "setting": "[3]; porcine aorta and isolated smooth muscle cells", "value": "about 1 μM"}, {"measurement": "EC50", "setting": "[3]; porcine aorta and isolated smooth muscle cells, read-out: half maximal activation (ED5o) of guanylate cyclase", "value": "~10", "unit": "nM"}, {"measurement": "inhibition of renal medullary Na+-K+-ATPase activity", "setting": "[4]", "value": "did not significantly inhibit"}, {"measurement": "duration of diuretic effects", "setting": "[2]; healthy humans", "value": "less than 60 minutes"}, {"measurement": "potassium excretion", "setting": "[2]; healthy humans, 100 ng/kg body wt", "value": "significant (P<0.05)"}, {"measurement": "increase in urine volume (in words)", "setting": "[2]; healthy humans, 100 ng/kg body wt per minute for 1 hour i.v., n=6, ANOVA", "value": "significant"}, {"measurement": "sodium excretion (in words)", "setting": "[2]; healthy humans, 100 ng/kg body wt per minute for 60 minutes, vs baseline", "value": "significantly (P<0.05) increased"}, {"measurement": "systolic and diastolic blood pressures", "setting": "[2]; healthy humans, 100 ng/kg body wt per minute i.v. for 60 min, n=6", "value": "significant"}, {"measurement": "time within which sodium excreting effects cease", "setting": "[2]; humans as well as other mammals", "value": "≤ 30", "unit": "min"}, {"measurement": "prostaglandin E2 (PGE2) synthesis", "setting": "[5]", "value": "no significant effect"}, {"measurement": "particulate guanylate cyclase activity", "setting": "[6]", "value": "enhance"}, {"measurement": "FENa, fractional excretion of sodium", "setting": "[7]; [8]", "value": "0.027 ± 0.010", "unit": "%"}, {"measurement": "UNa, urinary sodium", "setting": "[7]; [8]", "value": "18.48 ± 3.76", "unit": "meq/1"}, {"measurement": "UNaV, urinary sodium excretion rate", "setting": "[7]; [8]", "value": "71.77 ± 23.08 μeq · min^−1 · g kidney wt^−1"}, {"measurement": "V, urine flow rate", "setting": "[7]; [8]", "value": "2.89 ± 0.71 μl · min^−1 · g kidney wt^−1"}, {"measurement": "V, urine flow rate", "setting": "[7]; B, first 60-minute experiment period, 10 μg/kg bolus then 0.1 μg/kg/min via jugular vein", "value": "11.95 ± 4.28 μl · min^−1 · g kidney wt^−1"}, {"measurement": "FENa, fractional excretion of sodium", "setting": "[7]; [9]", "value": "0.415 ± 0.141", "unit": "%"}, {"measurement": "UNa, urinary sodium", "setting": "[7]; [9]", "value": "104.07 ± 23.35", "unit": "meq/1"}, {"measurement": "UNaV, urinary sodium excretion rate", "setting": "[7]; [9]", "value": "1,526 ± 796.50 μeq · min^−1 · g kidney wt^−1"}, {"measurement": "V, urine flow rate", "setting": "[7]; C, second 60-minute experimental period, 10 μg/kg bolus then 0.1 μg/kg/min", "value": "7.26 ± 1.39 μl · min^−1 · g kidney wt^−1"}, {"measurement": "FENa, fractional excretion of sodium", "setting": "[7]; [10]", "value": "0.312 ± 0.090", "unit": "%"}, {"measurement": "UNa, urinary sodium", "setting": "[7]; [10]", "value": "109.97 ± 22.12", "unit": "meq/1"}, {"measurement": "UNaV, urinary sodium excretion rate", "setting": "[7]; [10]", "value": "838.61 ± 222.68 μeq · min^−1 · g kidney wt^−1"}, {"measurement": "potassium excretion", "setting": "[7]; rat clearance model", "value": "significantly increase potassium excretion"}, {"measurement": "increase in cyclic GMP levels over baseline levels associated with vasodilation", "setting": "porcine aortas", "value": "four-to-five fold"}]}
{"compound": "H-EVVPPQVLSEPNEEAGAALSPLPEVPPWTGEVSPAQR-OH [proANF 31-67]", "values": [{"measurement": "time after stopping infusion for which diuresis / urine flow is still significantly elevated (P<0.01)", "setting": "[1]", "value": "at least 3 hours"}, {"measurement": "increase in urine flow", "setting": "[2]; healthy humans", "value": "4-12 fold"}]}
